## Cell number after 72 h of treatment

Source: doi:10.1371/journal.pone.0140310, primary screening data, rounded.

First drug in all entries: nilotinib, 0.2 µM, Cc1cn(-c2cc(NC(=O)c3ccc(C)c(Nc4nccc(-c5cccnc5)n4)c3)cc(C(F)(F)F)c2)cn1

Compounds and concentrations:
GW441756, 0.4 µM: Cn1cc(/C=C2\C(=O)Nc3cccnc32)c2ccccc21
darinaparsin, 0.4 µM: C[As](C)SC[C@H](NC(=O)CC[C@H](N)C(=O)O)C(=O)NCC(=O)O
perifosine, 0.4 µM: CCCCCCCCCCCCCCCCCCOP(=O)([O-])OC1CC[N+](C)(C)CC1
BI-D1870, 0.2 µM: CC(C)CCN1c2nc(Nc3cc(F)c(O)c(F)c3)ncc2N(C)C(=O)C1C (stereo not shown)
vorinostat, 0.08 µM: O=C(CCCCCCC(=O)Nc1ccccc1)NO
BMS-536924, 0.2 µM: Cc1cc(N2CCOCC2)cc2[nH]c(-c3c(NC[C@@H](O)c4cccc(Cl)c4)cc[nH]c3=O)nc12
SNS-314, 0.0008 µM: O=C(Nc1cccc(Cl)c1)Nc1ncc(CCNc2ncnc3ccsc23)s1
lapatinib, 0.8 µM: CS(=O)(=O)CCNCc1ccc(-c2ccc3ncnc(Nc4ccc(OCc5cccc(F)c5)c(Cl)c4)c3c2)o1
SU6656, 0.4 µM: CN(C)S(=O)(=O)c1ccc2c(c1)/C(=C/c1cc3c([nH]1)CCCC3)C(=O)N2
nutlin-3, 0.1 µM: COc1ccc(C2=N[C@@H](c3ccc(Cl)cc3)[C@@H](c3ccc(Cl)cc3)N2C(=O)N2CCNC(=O)C2)c(OC(C)C)c1
AS-252424, 1 µM: O=C1NC(=O)/C(=C/c2ccc(-c3ccc(F)cc3O)o2)S1
vincristine, 0.0001 µM: CC[C@]1(O)C[C@H]2CN(CCc3c([nH]c4ccccc34)[C@@](C(=O)OC)(c3cc4c(cc3OC)N(C=O)[C@H]3[C@@](O)(C(=O)OC)[C@H](OC(C)=O)[C@]5(CC)C=CCN6CC[C@]43[C@@H]65)C2)C1
GSK650394, 0.16 µM: O=C(O)c1ccc(-c2c[nH]c3ncc(-c4ccccc4)cc23)cc1C1CCCC1
dasatinib, 0.004 µM: Cc1nc(Nc2ncc(C(=O)Nc3c(C)cccc3Cl)s2)cc(N2CCN(CCO)CC2)n1
fingolimod, 2 µM: CCCCCCCCc1ccc(CCC(N)(CO)CO)cc1
pioglitazone, 2 µM: CCc1ccc(CCOc2ccc(CC3SC(=O)NC3=O)cc2)nc1 (stereo not shown)
KU-0063794, 0.02 µM: COc1ccc(-c2ccc3c(N4CCOCC4)nc(N4C[C@@H](C)O[C@@H](C)C4)nc3n2)cc1CO
MK-2206, 0.4 µM: NC1(c2ccc(-c3nc4ccn5c(=O)[nH]nc5c4cc3-c3ccccc3)cc2)CCC1
FK866, 0.01 µM: O=C(/C=C/c1cccnc1)NCCCCC1CCN(C(=O)c2ccccc2)CC1
GW2580, 1 µM: COc1ccc(COc2ccc(Cc3cnc(N)nc3N)cc2OC)cc1
SNS-032, 0.01 µM: CC(C)(C)c1cnc(CSc2cnc(NC(=O)C3CCNCC3)s2)o1
dovitinib, 0.1 µM: CN1CCN(c2ccc3nc(-c4c(N)c5c(F)cccc5[nH]c4=O)[nH]c3c2)CC1
AZD7762, 0.02 µM: NC(=O)Nc1cc(-c2cccc(F)c2)sc1C(=O)N[C@H]1CCCNC1
FH535, 1 µM: Cc1cc([N+](=O)[O-])ccc1NS(=O)(=O)c1cc(Cl)ccc1Cl

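Human melanoma cell lines in 1,536-well plates were treated with a pair of drugs for 72 h, then fixed, stained and imaged. Each value is the count of nuclei relative to DMSO-treated wells, in %, so that 100 equals the control. Every drug was used at one fixed concentration, the lower of two screened (a fifth of the higher). These are primary screening values without error estimates.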
Only some of the drugs and lines screened are listed, without regard to their results.
A dash means that no value is listed here.

| # | Partner | 501mel | LB2518-MEL | COLO 829 | A2058 | LOX IMVI | COLO 800 |
|---|---|---|---|---|---|---|---|
| 1 | vorinostat | - | 124 | 132 | 92.0 | 141 | 69.9 |
| 2 | AS-252424 | 92.1 | 107 | 102 | 115 | 129 | 122 |
| 3 | SNS-032 | - | 99.8 | 130 | 101 | 142 | 102 |
| 4 | SNS-314 | - | 83.6 | 93.0 | 103 | 91.8 | 55.4 |
| 5 | FK866 | - | 76.8 | 77.5 | 99.4 | 54.2 | 34.6 |
| 6 | dovitinib | - | 110 | 101 | 101 | 150 | 101 |
| 7 | FH535 | 106 | 103 | 127 | 105 | 124 | 114 |
| 8 | pioglitazone | - | - | 134 | 104 | 90.4 | 80.5 |
| 9 | fingolimod | - | 123 | 87.5 | 84.6 | 91.1 | 81.2 |
| 10 | GSK650394 | - | 103 | 103 | 107 | 100 | 112 |
| 11 | vincristine | - | 91.0 | 99.7 | 20.2 | 46.2 | 101 |
| 12 | GW2580 | 94.6 | 117 | 116 | 107 | 122 | 108 |
| 13 | AZD7762 | - | 105 | 111 | 118 | 97.7 | 106 |
| 14 | nutlin-3 | - | 94.6 | 96.9 | 87.3 | 58.3 | 124 |
| 15 | dasatinib | - | 99.8 | 85.0 | 98.1 | 53.4 | 75.0 |
| 16 | BI-D1870 | 88.4 | 98.6 | 98.4 | 92.4 | 130 | 119 |
| 17 | MK-2206 | - | 97.7 | 104 | 104 | 69.3 | 101 |
| 18 | GW441756 | 90.2 | 86.3 | 114 | 110 | 135 | 96.4 |
| 19 | darinaparsin | - | 110 | 104 | 97.7 | 151 | 121 |
| 20 | BMS-536924 | - | 81.7 | 95.9 | 97.9 | 106 | 57.9 |
| 21 | KU-0063794 | 87.2 | 114 | 122 | 95.0 | 99.7 | 108 |
| 22 | perifosine | - | 102 | 90.7 | 97.3 | 73.3 | 80.6 |
| 23 | lapatinib | - | 90.6 | 111 | 80.1 | 174 | 102 |
| 24 | SU6656 | - | 106 | 91.1 | 112 | 142 | 103 |